Results from the supplement of paper PMC10849652.
The other results are listed elsewhere or left out.

Protein sequences, listed by entry. Tags and fused reporters are not part of them. Lines headed by an entry give the natural chain unless they say otherwise; changes in a name come on top.
UniProt P61020: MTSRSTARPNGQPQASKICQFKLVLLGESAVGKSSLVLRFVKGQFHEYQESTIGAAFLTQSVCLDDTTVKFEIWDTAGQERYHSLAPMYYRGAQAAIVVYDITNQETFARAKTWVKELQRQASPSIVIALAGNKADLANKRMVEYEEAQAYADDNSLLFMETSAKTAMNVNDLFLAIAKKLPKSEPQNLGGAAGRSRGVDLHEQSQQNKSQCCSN
UniProt Q86YS3: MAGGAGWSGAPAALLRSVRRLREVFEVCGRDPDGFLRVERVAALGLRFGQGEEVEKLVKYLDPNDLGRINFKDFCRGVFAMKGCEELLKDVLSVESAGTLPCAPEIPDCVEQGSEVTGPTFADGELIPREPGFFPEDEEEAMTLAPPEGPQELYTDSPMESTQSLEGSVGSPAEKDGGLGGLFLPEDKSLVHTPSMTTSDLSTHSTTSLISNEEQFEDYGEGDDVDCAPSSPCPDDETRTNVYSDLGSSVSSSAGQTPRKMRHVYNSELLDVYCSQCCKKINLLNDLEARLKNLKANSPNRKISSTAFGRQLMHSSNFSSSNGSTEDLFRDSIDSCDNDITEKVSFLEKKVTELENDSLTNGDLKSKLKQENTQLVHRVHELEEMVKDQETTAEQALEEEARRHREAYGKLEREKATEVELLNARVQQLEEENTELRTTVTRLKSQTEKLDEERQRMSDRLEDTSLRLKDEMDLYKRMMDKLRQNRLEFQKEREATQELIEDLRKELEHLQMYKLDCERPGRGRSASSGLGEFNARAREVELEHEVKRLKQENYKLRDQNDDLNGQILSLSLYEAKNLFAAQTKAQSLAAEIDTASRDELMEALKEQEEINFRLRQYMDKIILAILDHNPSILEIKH
UniProt Q96PU8: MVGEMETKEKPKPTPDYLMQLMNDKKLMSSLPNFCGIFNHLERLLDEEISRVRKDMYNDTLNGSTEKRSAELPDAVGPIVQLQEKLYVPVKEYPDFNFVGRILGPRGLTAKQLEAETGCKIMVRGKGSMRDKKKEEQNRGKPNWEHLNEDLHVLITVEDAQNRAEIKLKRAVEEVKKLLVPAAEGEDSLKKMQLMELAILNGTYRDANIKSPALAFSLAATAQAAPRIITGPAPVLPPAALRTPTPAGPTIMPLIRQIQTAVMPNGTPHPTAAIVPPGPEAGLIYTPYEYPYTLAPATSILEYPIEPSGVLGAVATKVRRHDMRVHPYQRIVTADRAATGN
UniProt Q96QF0: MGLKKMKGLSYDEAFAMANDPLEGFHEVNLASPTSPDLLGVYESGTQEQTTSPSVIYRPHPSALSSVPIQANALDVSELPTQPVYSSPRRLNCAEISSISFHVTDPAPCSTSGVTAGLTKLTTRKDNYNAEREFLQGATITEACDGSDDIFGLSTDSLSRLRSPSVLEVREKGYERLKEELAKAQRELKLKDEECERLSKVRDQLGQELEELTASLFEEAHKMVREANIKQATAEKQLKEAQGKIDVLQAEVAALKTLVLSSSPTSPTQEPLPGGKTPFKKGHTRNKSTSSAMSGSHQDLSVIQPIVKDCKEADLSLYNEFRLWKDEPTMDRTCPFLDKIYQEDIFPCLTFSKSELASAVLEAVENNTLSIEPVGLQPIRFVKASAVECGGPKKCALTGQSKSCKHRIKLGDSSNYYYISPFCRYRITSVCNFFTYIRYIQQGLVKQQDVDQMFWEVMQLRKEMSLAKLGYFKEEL
UniProt Q9H6Z4: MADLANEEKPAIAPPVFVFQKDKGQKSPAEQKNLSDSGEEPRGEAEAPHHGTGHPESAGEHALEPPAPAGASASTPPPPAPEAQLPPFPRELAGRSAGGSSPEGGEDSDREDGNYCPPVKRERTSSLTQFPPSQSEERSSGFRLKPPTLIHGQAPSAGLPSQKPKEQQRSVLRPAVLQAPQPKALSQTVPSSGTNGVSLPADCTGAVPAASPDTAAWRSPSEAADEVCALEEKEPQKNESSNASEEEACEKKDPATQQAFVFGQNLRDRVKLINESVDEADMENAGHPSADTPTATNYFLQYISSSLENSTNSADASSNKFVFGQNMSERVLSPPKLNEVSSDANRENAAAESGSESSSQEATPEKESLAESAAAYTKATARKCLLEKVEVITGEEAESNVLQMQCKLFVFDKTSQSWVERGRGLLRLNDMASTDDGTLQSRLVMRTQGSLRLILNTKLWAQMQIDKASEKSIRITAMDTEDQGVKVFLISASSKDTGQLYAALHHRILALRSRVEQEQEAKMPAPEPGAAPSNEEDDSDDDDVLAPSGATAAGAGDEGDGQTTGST
UniProt Q8WUD1: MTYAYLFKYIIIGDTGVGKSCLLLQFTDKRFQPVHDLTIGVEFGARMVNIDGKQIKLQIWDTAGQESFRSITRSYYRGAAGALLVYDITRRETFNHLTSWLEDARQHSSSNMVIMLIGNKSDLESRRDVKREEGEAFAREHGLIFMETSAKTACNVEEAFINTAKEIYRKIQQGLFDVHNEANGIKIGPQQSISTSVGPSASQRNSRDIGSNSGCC
UniProt P61018: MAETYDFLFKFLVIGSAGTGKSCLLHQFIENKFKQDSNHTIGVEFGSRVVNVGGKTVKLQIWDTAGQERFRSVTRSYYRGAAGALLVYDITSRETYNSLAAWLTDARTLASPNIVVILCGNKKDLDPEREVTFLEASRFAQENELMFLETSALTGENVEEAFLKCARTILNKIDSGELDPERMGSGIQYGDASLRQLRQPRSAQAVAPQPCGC
UniProt Q6VN20, whole entry, looked up: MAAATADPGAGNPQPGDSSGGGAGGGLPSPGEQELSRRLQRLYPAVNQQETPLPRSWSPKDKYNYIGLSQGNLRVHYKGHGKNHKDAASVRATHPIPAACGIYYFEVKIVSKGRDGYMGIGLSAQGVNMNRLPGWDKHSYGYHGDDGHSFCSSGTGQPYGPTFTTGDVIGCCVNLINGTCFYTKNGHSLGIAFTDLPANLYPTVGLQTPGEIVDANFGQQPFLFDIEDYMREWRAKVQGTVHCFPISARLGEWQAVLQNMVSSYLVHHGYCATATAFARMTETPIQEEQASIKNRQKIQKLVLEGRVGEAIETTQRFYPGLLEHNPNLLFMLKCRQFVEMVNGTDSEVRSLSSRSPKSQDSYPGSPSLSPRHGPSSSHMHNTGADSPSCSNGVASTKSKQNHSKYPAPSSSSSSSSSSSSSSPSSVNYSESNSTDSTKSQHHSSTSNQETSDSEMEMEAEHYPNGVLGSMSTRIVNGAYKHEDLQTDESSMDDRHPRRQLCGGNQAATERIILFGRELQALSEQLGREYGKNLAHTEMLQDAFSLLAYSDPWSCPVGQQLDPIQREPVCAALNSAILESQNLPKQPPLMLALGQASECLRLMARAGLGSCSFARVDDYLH
UniProt Q3YEC7: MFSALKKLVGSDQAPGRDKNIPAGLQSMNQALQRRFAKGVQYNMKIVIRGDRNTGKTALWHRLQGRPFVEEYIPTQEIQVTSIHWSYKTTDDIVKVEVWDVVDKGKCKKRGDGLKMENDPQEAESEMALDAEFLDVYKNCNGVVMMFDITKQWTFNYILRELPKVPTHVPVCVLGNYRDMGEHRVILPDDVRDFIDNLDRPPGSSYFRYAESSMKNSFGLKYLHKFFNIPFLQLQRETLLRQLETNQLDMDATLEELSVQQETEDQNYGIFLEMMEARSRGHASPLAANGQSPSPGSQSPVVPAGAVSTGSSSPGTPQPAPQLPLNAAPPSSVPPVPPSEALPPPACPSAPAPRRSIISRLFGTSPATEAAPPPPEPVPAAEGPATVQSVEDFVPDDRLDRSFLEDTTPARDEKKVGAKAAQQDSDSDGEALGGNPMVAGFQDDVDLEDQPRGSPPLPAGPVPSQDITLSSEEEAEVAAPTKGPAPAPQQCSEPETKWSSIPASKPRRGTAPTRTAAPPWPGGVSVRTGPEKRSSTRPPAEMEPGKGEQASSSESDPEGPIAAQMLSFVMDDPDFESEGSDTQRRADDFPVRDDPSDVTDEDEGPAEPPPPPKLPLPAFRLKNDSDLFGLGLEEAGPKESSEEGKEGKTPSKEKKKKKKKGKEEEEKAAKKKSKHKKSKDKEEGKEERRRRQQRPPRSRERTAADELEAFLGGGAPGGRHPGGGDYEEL
UniProt Q86X10: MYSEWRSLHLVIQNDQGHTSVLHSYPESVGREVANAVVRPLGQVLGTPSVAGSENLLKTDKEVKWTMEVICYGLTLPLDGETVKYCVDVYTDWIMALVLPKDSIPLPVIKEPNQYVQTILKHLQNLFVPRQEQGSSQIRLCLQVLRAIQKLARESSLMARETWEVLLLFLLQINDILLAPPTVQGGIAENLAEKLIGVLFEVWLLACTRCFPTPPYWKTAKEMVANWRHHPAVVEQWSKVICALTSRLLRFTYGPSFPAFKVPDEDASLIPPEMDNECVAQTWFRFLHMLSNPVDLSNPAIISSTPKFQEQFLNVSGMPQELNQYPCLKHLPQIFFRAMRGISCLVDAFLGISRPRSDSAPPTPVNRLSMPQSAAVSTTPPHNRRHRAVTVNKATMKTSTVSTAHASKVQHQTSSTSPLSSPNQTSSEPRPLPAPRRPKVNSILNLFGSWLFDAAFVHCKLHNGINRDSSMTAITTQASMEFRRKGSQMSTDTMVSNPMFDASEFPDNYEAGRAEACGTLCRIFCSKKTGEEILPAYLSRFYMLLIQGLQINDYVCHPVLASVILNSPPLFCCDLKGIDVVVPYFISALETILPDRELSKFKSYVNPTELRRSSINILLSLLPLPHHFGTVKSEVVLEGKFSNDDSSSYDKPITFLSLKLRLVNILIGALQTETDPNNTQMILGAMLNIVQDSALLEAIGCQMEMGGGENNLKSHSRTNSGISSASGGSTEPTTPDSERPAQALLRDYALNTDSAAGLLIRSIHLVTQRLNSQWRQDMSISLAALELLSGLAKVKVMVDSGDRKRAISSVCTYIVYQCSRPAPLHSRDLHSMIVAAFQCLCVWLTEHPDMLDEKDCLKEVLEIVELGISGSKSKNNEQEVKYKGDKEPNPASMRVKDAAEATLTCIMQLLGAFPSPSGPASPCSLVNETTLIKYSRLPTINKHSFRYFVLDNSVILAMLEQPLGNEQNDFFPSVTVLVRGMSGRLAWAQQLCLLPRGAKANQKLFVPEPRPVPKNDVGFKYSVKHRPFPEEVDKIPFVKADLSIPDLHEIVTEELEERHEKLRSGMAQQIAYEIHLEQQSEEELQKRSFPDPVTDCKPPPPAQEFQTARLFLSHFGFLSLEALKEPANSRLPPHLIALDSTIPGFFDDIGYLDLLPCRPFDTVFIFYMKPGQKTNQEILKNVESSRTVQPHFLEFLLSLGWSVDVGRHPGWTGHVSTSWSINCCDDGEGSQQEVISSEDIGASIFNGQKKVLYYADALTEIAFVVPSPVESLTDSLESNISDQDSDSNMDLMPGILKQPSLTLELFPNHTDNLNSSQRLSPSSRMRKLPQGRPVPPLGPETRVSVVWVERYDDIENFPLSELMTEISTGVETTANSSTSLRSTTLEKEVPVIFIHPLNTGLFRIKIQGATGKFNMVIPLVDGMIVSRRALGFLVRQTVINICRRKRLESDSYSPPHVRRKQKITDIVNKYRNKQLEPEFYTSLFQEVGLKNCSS
UniProt Q9Y3L5: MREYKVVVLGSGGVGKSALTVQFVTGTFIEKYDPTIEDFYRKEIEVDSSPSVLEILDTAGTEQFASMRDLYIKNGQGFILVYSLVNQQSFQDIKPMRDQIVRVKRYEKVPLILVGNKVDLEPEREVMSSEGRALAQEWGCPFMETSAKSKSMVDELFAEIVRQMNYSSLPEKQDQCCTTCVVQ

What follows are targets tested with C1=CC=C(C=C1)[C@H](COC2=CC3=C(C=C2)NC(=O)N3)NC(=O)C4=CC=CN(C4=O)CC5=CC(=C(C=C5)F)F (assay: log2 fold change, soluble protein after heating vs DMSO (PISA); higher = thermal stabilisation; K562 lysate, 10 uM; active = over 0.2 and 3.5 SD of the protein, either way, in both replicates (recomputed)).
In short: (§1)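 K562 pellets were dounce-homogenised in PBS pH 7.4 with 1 mM MgCl2, and the crude extract at 1 mg/mL protein was treated with 10 μM compound for 30 min. Aliquots were heated for 3 min across 48°C-58°C, pooled, and brought to 0.5% NP-40 at 4°C; soluble protein was the supernatant after 21,000xg for 90 min. Soluble protein was quantified by TMTpro 16plex LC-MS/MS with channel sums equalised, and reported as log2 fold change in thermal stability against DMSO controls, with values from duplicates.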

Row | Target | log2 fold change
1 | QTRT1 (UniProt Q9BXR0) | inactive: 0.019
2 | RAB35 (UniProt Q15286) | inactive: 0.031
3 | R3HCC1 (UniProt Q9Y3T6) | inactive: 0.014
4 | RAB5B (UniProt P61020) | inactive: 0.007
5 | RAB11FIP4 (UniProt Q86YS3) | inactive: 0.004
6 | RACK1 (UniProt D6RF23) | inactive: 0.188
7 | QSOX2 (UniProt Q6ZRP7) | inactive: 0.008
8 | QKI (UniProt Q96PU8) | inactive: -0.071
9 | RAB3IP (UniProt Q96QF0) | inactive: 0.059
10 | RANBP3 (UniProt Q9H6Z4) | inactive: 0.027
11 | RAP2A (UniProt P10114) | inactive: -0.014
12 | RAD51 (UniProt Q06609) | inactive: -0.039
13 | RAB4A (UniProt P20338) | inactive: 0.008
14 | RAB2B (UniProt Q8WUD1) | inactive: -0.016
15 | PYCR1 (UniProt J3QKT4) | inactive: 0.134
16 | RABAC1 (UniProt Q9UI14) | inactive: -0.019
17 | RAD50 isoform 2 (UniProt Q92878) | inactive: -0.002
18 | RAPGEF1 isoform 3 (UniProt Q13905) | inactive: 0.024
19 | RAB5A (UniProt P20339) | inactive: -0.061
20 | RAB4B isoform 2 (UniProt P61018) | inactive: -0.018

Row | Target | log2 fold change
21 | RAB14 (UniProt P61106) | inactive: -0.055
22 | RAF1 isoform 2 (UniProt P04049) | inactive: 0.024
23 | RANBP10 (UniProt Q6VN20) | inactive: 0.056
24 | RABL6 (UniProt Q3YEC7) | inactive: 0.058
25 | PXK (UniProt Q7Z7A4) | inactive: -0.059
26 | RAP1GAP isoform 4 (UniProt P47736) | inactive: 0.019
27 | RABGAP1L isoform 5 (UniProt Q5R372) | inactive: 0.015
28 | RAB27A (UniProt P51159) | inactive: 0.052
29 | PYROXD1 (UniProt Q8WU10) | inactive: 0.035
30 | RABGAP1L isoform 3 (UniProt Q5R372) | inactive: -0.003
31 | RALGAPB (UniProt Q86X10) | inactive: 0.029
32 | RAP2C (UniProt Q9Y3L5) | inactive: -0.081
33 | RAD23B (UniProt P54727) | inactive: -0.006
34 | PYURF (UniProt Q96I23) | inactive: 0.03
35 | RAC2 (UniProt P15153) | inactive: -0.116
36 | PYCR3 (UniProt Q53H96) | inactive: 0.015
37 | QTRT2 isoform 4 (UniProt Q9H974) | inactive: -0.004
38 | RANBP3 isoform 2 (UniProt Q9H6Z4) | inactive: 0.069
39 | RAP2B (UniProt P61225) | inactive: -0.02
40 | RAB20 (UniProt Q9NX57) | inactive: 0.008

Each target was assayed with CC1=C(SC2=C1C(=N[C@H](C3=NN=C(N32)C)CC(=O)N)C4=CC=C(C=C4)Cl)C in the same assay as above.
In short: as §1

Row | Target | log2 fold change
41 | QTRT1 (UniProt Q9BXR0) | inactive: 0.007
42 | RAB35 (UniProt Q15286) | inactive: -0.036
43 | R3HCC1 (UniProt Q9Y3T6) | inactive: 0.015
44 | RAB5B (UniProt P61020) | inactive: 0.057
45 | RAB11FIP4 (UniProt Q86YS3) | inactive: 0.099
46 | RACK1 (UniProt D6RF23) | inactive: 0.218
47 | QSOX2 (UniProt Q6ZRP7) | inactive: -0.008
48 | QKI (UniProt Q96PU8) | inactive: -0.001
49 | RAB3IP (UniProt Q96QF0) | inactive: 0.003
50 | RANBP3 (UniProt Q9H6Z4) | inactive: -0.002
51 | RAP2A (UniProt P10114) | inactive: 0.008
52 | RAD51 (UniProt Q06609) | inactive: 0.058
53 | RAB4A (UniProt P20338) | inactive: -0.018
54 | RAB2B (UniProt Q8WUD1) | inactive: -0.035
55 | PYCR1 (UniProt J3QKT4) | inactive: 0.146
56 | RABAC1 (UniProt Q9UI14) | inactive: 0.05
57 | RAD50 isoform 2 (UniProt Q92878) | inactive: -0.031
58 | RAPGEF1 isoform 3 (UniProt Q13905) | inactive: 0.074
59 | RAB5A (UniProt P20339) | inactive: 0.017
60 | RAB4B isoform 2 (UniProt P61018) | inactive: -0.01

Row | Target | log2 fold change
61 | RAB14 (UniProt P61106) | inactive: -0.007
62 | RAF1 isoform 2 (UniProt P04049) | inactive: 0.035
63 | RANBP10 (UniProt Q6VN20) | inactive: 0.028
64 | RABL6 (UniProt Q3YEC7) | inactive: 0.004
65 | PXK (UniProt Q7Z7A4) | inactive: -0.03
66 | RAP1GAP isoform 4 (UniProt P47736) | inactive: -0.012
67 | RABGAP1L isoform 5 (UniProt Q5R372) | inactive: -0.022
68 | RAB27A (UniProt P51159) | inactive: 0.028
69 | PYROXD1 (UniProt Q8WU10) | inactive: 0.004
70 | RABGAP1L isoform 3 (UniProt Q5R372) | inactive: 0.067
71 | RALGAPB (UniProt Q86X10) | inactive: 0.023
72 | RAP2C (UniProt Q9Y3L5) | inactive: 0.111
73 | RAD23B (UniProt P54727) | inactive: -0.04
74 | PYURF (UniProt Q96I23) | inactive: 0.048
75 | RAC2 (UniProt P15153) | inactive: 0.043
76 | PYCR3 (UniProt Q53H96) | inactive: -0.054
77 | QTRT2 isoform 4 (UniProt Q9H974) | inactive: 0.014
78 | RANBP3 isoform 2 (UniProt Q9H6Z4) | inactive: -0.012
79 | RAP2B (UniProt P61225) | inactive: -0.003
80 | RAB20 (UniProt Q9NX57) | inactive: -0.235
